# Assay results: the supplement of paper PMC4604168 (melanoma cell lines)
# Some of the results follow. Repeats are few or missing, and single values can be far off.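 The apoptosis fraction was the count of cleaved-PARP antibody-stained nuclei relative to all DNA-stained nuclei, imaged in 1,536-well plates. Screening doses were set so most cells survived, and baseline and induced cleaved-PARP levels vary greatly across cell lines.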
# System: SkMel5
# Test: cleaved PARP positive nuclei fraction relative to DMSO control; melanoma cells; higher = more apoptosis
# Settings: library dose: low library concentration; 72 h
row,Structure (SMILES),cleaved PARP positive nuclei fraction
1,"NC1(c2ccc(-c3nc4ccn5c(=O)[nH]nc5c4cc3-c3ccccc3)cc2)CCC1 + O=C(Oc1ccc([N+](=O)[O-])cc1)N1CCC(C(O)(c2ccc3c(c2)OCO3)c2ccc3c(c2)OCO3)CC1 [JZL184] (first compound 0.4 µM, partner dose 1 µM)",153%
2,"COc1ccc(C2=N[C@@H](c3ccc(Cl)cc3)[C@@H](c3ccc(Cl)cc3)N2C(=O)N2CCNC(=O)C2)c(OC(C)C)c1 [Nutlin-3] + C/C(O)=C(\C#N)C(=O)Nc1cc(Br)ccc1Br [LFM-A13] (first compound 0.1 µM, partner dose 2 µM)",87.1%
3,"O=C(/C=C/c1cccnc1)NCCCCC1CCN(C(=O)c2ccccc2)CC1 + Cc1cc(SCc2sc(-c3ccc(C(F)(F)F)c(F)c3)nc2C)ccc1OCC(=O)O [GW0742] (first compound 0.01 µM, partner dose 2 µM)",85.4%
4,"C[As](C)SC[C@H](NC(=O)CC[C@H](N)C(=O)O)C(=O)NCC(=O)O [Darinaparsin] + NC(=O)Nc1cc(-c2cccc(F)c2)sc1C(=O)N[C@H]1CCCNC1 [AZD7762] (first compound 0.4 µM, partner dose 0.02 µM)",66.4%
5,"C[As](C)SC[C@H](NC(=O)CC[C@H](N)C(=O)O)C(=O)NCC(=O)O [Darinaparsin] + C[C@@H]1CCN(C(=O)CC#N)C[C@@H]1N(C)c1ncnc2[nH]ccc12 [CP690550] (first compound 0.4 µM, partner dose 1 µM)",146%
6,"C[C@]1(O)C[C@@H](c2nc(-c3ccc4ccc(-c5ccccc5)nc4c3)c3c(N)nccn32)C1 + C/C(O)=C(\C#N)C(=O)Nc1cc(Br)ccc1Br [LFM-A13] (first compound 0.4 µM, partner dose 2 µM)",6850%
7,"N.N.[Cl][Pt][Cl] [cisplatin] + Cc1cc([N+](=O)[O-])ccc1NS(=O)(=O)c1cc(Cl)ccc1Cl [FH535] (first compound 1.6 µM, partner dose 1 µM)",81.9%
8,"Cn1cc(C2=C(c3cn(C4CCN(Cc5ccccn5)CC4)c4ccccc34)C(=O)NC2=O)c2ccccc21 [Enzastaurin] + O=C1NC(=O)/C(=C/c2ccc(-c3ccc(F)cc3O)o2)S1 [AS252424] (first compound 0.8 µM, partner dose 1 µM)",73.7%
9,"C=CCNC1=C2C[C@@H](C)C[C@H](OC)[C@H](O)[C@@H](C)/C=C(\C)[C@H](OC(N)=O)[C@@H](OC)/C=C\C=C(/C)C(=O)NC(=CC1=O)C2=O [Tanespimycin] + Cc1cc(SCc2sc(-c3ccc(C(F)(F)F)c(F)c3)nc2C)ccc1OCC(=O)O [GW0742] (first compound 0.002 µM, partner dose 2 µM)",38.9%
10,"O=C(O)c1ccc2c(c1)nc(Nc1cccc(Cl)c1)c1ccncc12 + O=C(Oc1ccc([N+](=O)[O-])cc1)N1CCC(C(O)(c2ccc3c(c2)OCO3)c2ccc3c(c2)OCO3)CC1 [JZL184] (first compound 0.4 µM, partner dose 1 µM)",144%
11,"N.N.[Cl][Pt][Cl] [cisplatin] + Cc1cc(N2CCOCC2)cc2[nH]c(-c3c(NC[C@@H](O)c4cccc(Cl)c4)cc[nH]c3=O)nc12 [BMS536924] (first compound 1.6 µM, partner dose 0.2 µM)",94.3%
12,"CC1(C)CCC(c2ccc(Cl)cc2)=C(CN2CCN(c3ccc(C(=O)NS(=O)(=O)c4ccc(N[C@H](CCN5CCOCC5)CSc5ccccc5)c(S(=O)(=O)C(F)(F)F)c4)cc3)CC2)C1 + O=C(Oc1ccc([N+](=O)[O-])cc1)N1CCC(C(O)(c2ccc3c(c2)OCO3)c2ccc3c(c2)OCO3)CC1 [JZL184] (first compound 0.4 µM, partner dose 1 µM)",113%
13,"Cc1cc(Nc2cc(N3CCN(C)CC3)nc(/C=C/c3ccccc3)n2)n[nH]1 + C/C(O)=C(\C#N)C(=O)Nc1cc(Br)ccc1Br [LFM-A13] (first compound 0.04 µM, partner dose 2 µM)",239%
14,"N.N.[Cl][Pt][Cl] [cisplatin] + OCCn1cc(-c2cnc3nnn(Cc4ccc5ncccc5c4)c3n2)cn1 [PF04217903] (first compound 1.6 µM, partner dose 1 µM)",34.5%

# 2 records picked at random from those above:
row,Structure (SMILES),cleaved PARP positive nuclei fraction
3,"O=C(/C=C/c1cccnc1)NCCCCC1CCN(C(=O)c2ccccc2)CC1 + Cc1cc(SCc2sc(-c3ccc(C(F)(F)F)c(F)c3)nc2C)ccc1OCC(=O)O [GW0742] (first compound 0.01 µM, partner dose 2 µM)",85.4%
10,"O=C(O)c1ccc2c(c1)nc(Nc1cccc(Cl)c1)c1ccncc12 + O=C(Oc1ccc([N+](=O)[O-])cc1)N1CCC(C(O)(c2ccc3c(c2)OCO3)c2ccc3c(c2)OCO3)CC1 [JZL184] (first compound 0.4 µM, partner dose 1 µM)",144%
